PubChem BioAssay AID1259424 | University of Nebraska Medical Center – 2018

Aim: 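Find knockdowns that reproduce the expression shifts seen after KSR1 loss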 (primary screen)
Cells: human HCT116 colon cancer cells
Reagent: siRNA pool against human genes, 50 nM
Measured: 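Log2 levels of six mRNAs (branched-DNA multiplex), adjusted by two reference genes and the non-targeting median, then scored against the average KSR1 knockdown pattern as Pearson r and euclidean distance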
Reading the numbers: mean correlation with KSR1 profile: higher = expression change more like KSR1 knockdown; mean distance from KSR1 profile: higher = expression change less like KSR1 knockdown
Here is a random part of about 14,000 reagents tested. 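Higher correlation or smaller distance means closer resemblance to KSR1 loss; control wells, including KSR1 knockdowns, recur on many plates.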 A reagent listed more than once was tested more than once; the source does not tell the runs apart. Further read-outs or replicates are left out here. Not given: the time to read-out.

Against VDAC3 (GeneID 7419), the entry reads mean correlation with KSR1 profile 0.0647; mean distance from KSR1 profile 3.75.
With knock-down of CFAP74 (GeneID 85452), the record shows mean correlation with KSR1 profile 0.748; mean distance from KSR1 profile 1.81.
Knock-down of SLC25A28 (GeneID 81894) gave: mean correlation with KSR1 profile 0.317; mean distance from KSR1 profile 1.51.
For CYP2J2 (GeneID 1573), the values are mean correlation with KSR1 profile 0.181; mean distance from KSR1 profile 1.97.
MECR (GeneID 51102) showed mean correlation with KSR1 profile -0.822; mean distance from KSR1 profile 2.85.
Against ITPA (GeneID 3704), the entry reads mean correlation with KSR1 profile 0.178; mean distance from KSR1 profile 4.03.
Depletion of ECHDC2 (GeneID 55268) gave: mean correlation with KSR1 profile -0.0765; mean distance from KSR1 profile 2.3.
Against ARL6IP4 (GeneID 51329), the entry reads mean correlation with KSR1 profile 0.252; mean distance from KSR1 profile 1.17.
DHX32 (GeneID 55760) scored mean correlation with KSR1 profile -0.391; mean distance from KSR1 profile 2.52.
RNASE2 (GeneID 6036) gave mean correlation with KSR1 profile 0.3; mean distance from KSR1 profile 2.46.
After knock-down of PART1 (GeneID 25859) the results were mean correlation with KSR1 profile -0.733; mean distance from KSR1 profile 3.14.
Silencing of LAMTOR1 (GeneID 55004) resulted in: mean correlation with KSR1 profile -0.711; mean distance from KSR1 profile 1.67.
With knock-down of ESYT2 (GeneID 57488), the screen gave mean correlation with KSR1 profile -0.933; mean distance from KSR1 profile 2.37.
After knock-down of PYGM (GeneID 5837), the screen gave mean correlation with KSR1 profile -0.0723; mean distance from KSR1 profile 1.35.
JUNB (GeneID 3726) gave mean correlation with KSR1 profile 0.269; mean distance from KSR1 profile 3.78.
Depletion of AHSP (GeneID 51327) resulted in: mean correlation with KSR1 profile -0.134; mean distance from KSR1 profile 1.86.
After knock-down of AHSP (GeneID 51327) the results were mean correlation with KSR1 profile -0.159; mean distance from KSR1 profile 2.18.
After knock-down of ATP7B (GeneID 540), the screen gave mean correlation with KSR1 profile 0.149; mean distance from KSR1 profile 3.4.
With knock-down of POLR3D (GeneID 661), the record shows mean correlation with KSR1 profile 0.281; mean distance from KSR1 profile 1.92.
Depletion of PMP22 (GeneID 5376) resulted in: mean correlation with KSR1 profile -0.369; mean distance from KSR1 profile 2.97.
After knock-down of PMS2P3 (GeneID 5387), the screen gave mean correlation with KSR1 profile -0.328; mean distance from KSR1 profile 2.02.
After knock-down of GJC1 (GeneID 10052), the record shows mean correlation with KSR1 profile 0.242; mean distance from KSR1 profile 1.64.
After knock-down of LYZL1 (GeneID 84569), the screen gave mean correlation with KSR1 profile 0.501; mean distance from KSR1 profile 1.99.
With knock-down of ENPP1 (GeneID 5167) the results were mean correlation with KSR1 profile -0.123; mean distance from KSR1 profile 2.42.
Silencing of APOA1 (GeneID 335) came out at: mean correlation with KSR1 profile 0.0943; mean distance from KSR1 profile 2.05.
Depletion of AUTS2 (GeneID 26053) resulted in: mean correlation with KSR1 profile 0.586; mean distance from KSR1 profile 1.26.
After knock-down of QRSL1 (GeneID 55278), the screen gave mean correlation with KSR1 profile -0.261; mean distance from KSR1 profile 2.18.
PRKN (GeneID 5071) scored mean correlation with KSR1 profile -0.468; mean distance from KSR1 profile 3.47.

3 successive entries from above, for reference:
LAMTOR1 (GeneID 55004): mean correlation with KSR1 profile = -0.711; mean distance from KSR1 profile = 1.67
ESYT2 (GeneID 57488): mean correlation with KSR1 profile = -0.933; mean distance from KSR1 profile = 2.37
PYGM (GeneID 5837): mean correlation with KSR1 profile = -0.0723; mean distance from KSR1 profile = 1.35
